Publication PMC3741296
No constants are given. Whether binding was seen depends on the method and setting. Binding seen in cells or lysates may run through a third protein. Binding can be weak; no strength is given.

Sequences of proteins named here, by UniProt entry; tags and fusion partners are left off. A change or cut given only in a name is not applied to a line headed by its entry.
UniProt P35613: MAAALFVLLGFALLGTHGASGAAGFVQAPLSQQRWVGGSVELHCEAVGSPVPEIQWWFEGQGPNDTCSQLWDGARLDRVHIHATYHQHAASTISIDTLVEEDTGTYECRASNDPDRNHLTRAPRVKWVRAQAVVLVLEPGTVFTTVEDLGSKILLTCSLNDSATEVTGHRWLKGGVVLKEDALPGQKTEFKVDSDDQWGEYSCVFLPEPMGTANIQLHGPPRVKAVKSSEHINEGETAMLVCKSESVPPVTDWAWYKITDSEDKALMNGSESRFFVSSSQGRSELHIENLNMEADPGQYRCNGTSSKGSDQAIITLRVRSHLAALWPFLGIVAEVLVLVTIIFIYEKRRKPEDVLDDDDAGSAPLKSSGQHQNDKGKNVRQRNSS
UniProt P07355: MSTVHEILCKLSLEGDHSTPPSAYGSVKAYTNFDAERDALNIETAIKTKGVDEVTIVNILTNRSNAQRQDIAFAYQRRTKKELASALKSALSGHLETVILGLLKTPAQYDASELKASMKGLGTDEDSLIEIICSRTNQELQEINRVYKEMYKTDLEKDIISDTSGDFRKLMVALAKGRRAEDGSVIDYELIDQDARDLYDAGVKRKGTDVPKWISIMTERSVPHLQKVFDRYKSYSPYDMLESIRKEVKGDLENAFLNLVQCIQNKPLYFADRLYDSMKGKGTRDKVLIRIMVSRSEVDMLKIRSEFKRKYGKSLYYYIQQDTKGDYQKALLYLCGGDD

Assays:
[1] = biological target: CD147 (human (endogenous in SMMC-7721 and FHCC-98)) (UniProt P35613); assay: co-IP; total cellular membrane proteins (TMP) from SMMC-7721 and FHCC-98 cells on coupling gel pre-bound with 200 ug anti-ANXA2 mAb or anti-human CD147 mAb (ProFound Mammalian Co-Immunoprecipitation Kit); four washes; eluate blotted with anti-ANXA2 and anti-CD147 mAb; mouse IgG (anti-JEV mAb) as negative control
[2] = biological target: Annexin A2 (human (endogenous in SMMC-7721 and FHCC-98)) (UniProt P07355); assay: as above

Substance | binding [1] | binding [2]
Annexin A2 (from UniProt P07355 1-339) | binds | 
CD147 (from UniProt P35613-2) |  | binds
